# According to PubChem BioAssay AID1671190 (National Center for Advancing Translational Sciences (NCATS), 2021):
# Chains of the proteins cited; added tags and fusions are not shown.
# UniProt P18054, whole entry, looked up: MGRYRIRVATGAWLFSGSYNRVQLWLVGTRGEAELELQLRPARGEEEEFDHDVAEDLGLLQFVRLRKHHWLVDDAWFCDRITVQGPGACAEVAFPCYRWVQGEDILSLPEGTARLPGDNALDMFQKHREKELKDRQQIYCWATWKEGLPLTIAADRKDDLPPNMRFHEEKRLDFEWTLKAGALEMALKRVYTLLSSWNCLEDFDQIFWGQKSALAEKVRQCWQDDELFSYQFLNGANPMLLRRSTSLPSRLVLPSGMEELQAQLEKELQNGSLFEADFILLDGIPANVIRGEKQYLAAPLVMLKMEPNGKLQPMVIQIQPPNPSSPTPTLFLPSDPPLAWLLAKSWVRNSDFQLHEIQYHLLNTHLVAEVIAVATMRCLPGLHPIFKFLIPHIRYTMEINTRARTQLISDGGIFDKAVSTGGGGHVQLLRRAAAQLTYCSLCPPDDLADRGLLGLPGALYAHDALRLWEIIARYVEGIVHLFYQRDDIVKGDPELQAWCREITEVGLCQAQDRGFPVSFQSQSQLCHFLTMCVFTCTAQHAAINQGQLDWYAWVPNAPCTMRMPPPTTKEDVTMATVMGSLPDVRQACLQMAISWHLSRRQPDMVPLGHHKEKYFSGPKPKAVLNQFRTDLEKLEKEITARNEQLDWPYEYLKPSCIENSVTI
# Values joined by “and” are separate entries in the source; they are usually repeats but may differ in a detail not shown here. Equal entries are not always repeated. About 6,100 (1.1%) of roughly 580,000 compounds were called active. Inconclusive results, whose numbers are uncertain, are shown with a selection of clear calls. The call rests on the fitted dose curve; in most records, active means well fitted inhibition curve with a large enough effect; inconclusive means small, poorly fitted or top-dose-only effect, or another doubt; inactive means no such curve, though single readings can be large or run the other way. Where the call is inconclusive, the potency comes from a doubtful curve fit.
# Biological target: Polyunsaturated fatty acid lipoxygenase ALOX12 (Homo sapiens) (UniProt P18054)
# Test: Primary qHTS assay for inhibitors of human arachidonate 12S-lipoxygenase (ALOX12): Round 2
# Conditions: purified 12hLO, xylenol orange hydroperoxide absorbance; activity change, negative = inhibition: at 108 µM (top of the series) unless noted
# Method in brief: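 Purified human 12hLO (150 nM final) in 25 mM Hepes, 0.01% Triton X-100, pH 7.0 was preincubated 15 min at room temperature with compound. Then 40 uM arachidonic acid was added, 30 min. Hydroperoxide was read by Fe-XO absorbance ratio 573/405 nm.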
# On the % scale 0 is the no-effect control and ±100 the full control effect; potency means the concentration at half of the fitted maximal effect.
Compound,Potency,"activity change, negative = inhibition"
CCCCOc1ccc(C(=O)OC(C)CN(C)C)cc1 (configuration not stated),"inconclusive: 100 µM [inhibitor, single point]",–
CCN(CC)S(=O)(=O)NCc1ccnc(N2CCN(c3ccc(F)cc3)CC2)c1,"inconclusive: 63.1 µM [inhibitor, single point]",–
COCCC1(NS(C)(=O)=O)CCN(C(=O)NCC(C)C)CC1,–,inactive: 20.1%
Cn1cc(CN2CCc3ccccc32)ccc1=O,"inconclusive: 14.1 µM [inhibitor, partial curve]",–
CCOC(=O)c1c(C)[nH]c(C)c1C(=O)COC(=O)c1cc2ccccc2cc1O,"inconclusive: 44.7 µM [inhibitor, partial curve, poor fit]",–
CC(=O)Nc1ccccc1C,–,inactive: 3.36%
O=C(CNCc1ccc(Cl)cc1)Nc1ccc2c(c1)OCCO2,"inconclusive: 39.8 µM [inhibitor, partial curve]",–
CCOc1ccc(N2C(=O)/C(=C/c3ccc(C)o3)N(C)C2=S)cc1,"inconclusive: 35.5 µM [inhibitor, partial curve]",–
CC(C)Oc1ccc(CCc2n[nH]c(=S)n2Cc2ccccc2)cc1,"inconclusive: 35.5 µM [inhibitor, partial curve]",–
O=C(O)/C=C\C(=O)Nc1ccccc1C(=O)NCc1ccccc1,"inconclusive: 50.1 µM [inhibitor, partial curve, poor fit]",–
O=C1Nc2ccccc2CC12CCCN2CC1CCCCC1 (configuration not stated),"inconclusive: 112 µM [inhibitor, partial curve]",–
O=C(CN(C(=O)c1cc2c(s1)CCC2)C1CCCC1)NCc1cccs1,–,inactive: -20.1%
CN(Cc1ccco1)C(=O)c1cc2cc(Br)ccc2[nH]1,"inconclusive: 35.5 µM [inhibitor, partial curve, poor fit]",–
Cc1ccc([S+](=O)([O-])N2CCCN(c3nc4ncccc4o3)CC2)cc1,"inconclusive: 79.4 µM [inhibitor, partial curve, poor fit]",–
CN(Cc1ccco1)C(=O)c1ccc(OC2CCN(Cc3ccccn3)CC2)cc1,"inconclusive: 141 µM [inhibitor, single point]",–
CCOC(=O)C1=C[C@@H](CC)N(S(=O)(=O)c2ccc(C)cc2)[C@H]1c1cccs1,–,inactive: -19.7%
O=C(Nc1ccc(CC23CC4CC(CC(C4)C2)C3)cc1)c1ccc(F)cc1,–,inactive: 18.2%
CC(=O)c1ccc(N2CCN(C(C(=O)O)c3c[nH]c4cc(NC(=O)C(C)C)ccc34)CC2)cc1 (configuration not stated),–,inactive: -25.3%
CCCc1nc2c(s1)CCc1onc(-c3ccc(Cl)cc3)c1-2,–,inactive: -2.14%
CC(C)c1ccc(OCC(=O)NC2CC(C)(C)NC(C)(C)C2)c(Br)c1,–,inactive: -3.64%
CCCCCCOc1ccc(C(=O)CCC(=O)O)cc1,–,inactive: 12%
CC(OC(=O)c1cc(=O)[nH]c2ccccc12)C(=O)N(C)c1ccccc1 (configuration not stated),"inconclusive: 39.8 µM [inhibitor, partial curve, poor fit]",–
Cc1nc(-c2cccc(Cl)c2)n(CC(=O)Nc2cccc(C(C)C)c2)c(=O)c1CCO,"inconclusive: 17.8 µM [inhibitor, partial curve, poor fit]",–

Compound,Potency,"activity change, negative = inhibition"
Cc1ccc(N(C(C)C(=O)Nc2ccccc2C(=O)N2CCOCC2)S(C)(=O)=O)cc1C (configuration not stated),–,inactive: -1.06%
CC(O)CSc1nc2c(c(=O)n(C)c(=O)n2C)n1Cc1ccc(Cl)cc1 (configuration not stated),"inconclusive: 20 µM [inhibitor, partial curve, poor fit]",–
c1cncc(-c2nc(-n3ccnc3)c3ccccc3n2)c1,"inconclusive: 1.78 µM [inhibitor, full curve, poor fit]",–
O=C(N/N=C/c1cc(Br)c(O)c(Br)c1)c1cc2c(ccc3ccccc32)o1,"inconclusive: 44.7 µM [inhibitor, partial curve, poor fit]",–
CCc1ccnc(NS(=O)(=O)c2ccc3c(c2)CCO3)c1,"inconclusive: 112 µM [inhibitor, partial curve, poor fit]",–
CCOC(=O)C1CCCN(Cc2cc(Br)c(OC)cc2OC)C1 (configuration not stated),"inconclusive: 1.58 µM [inhibitor, full curve, poor fit]",–
COc1ccc(-c2cc(C(=O)N3CCN(c4ccccc4OC)CC3)c3cc(C(C)C)ccc3n2)cc1,–,inconclusive: -30.4% [inhibitor]
Cc1nc2cc(NC(=O)C(C)Oc3ccc(Cl)cc3Cl)ccc2o1 (configuration not stated),"inconclusive: 20 µM [inhibitor, partial curve, poor fit]",–
C[C@@]12C(=O)Nc3ccc(F)cc3C(=O)N1[C@H]1c3cc(Cl)ccc3OC[C@@H]1[C@@H]2c1ccccc1,"inconclusive: 35.5 µM [inhibitor, single point]",–
Cc1cc(C)c2oc(=O)cc(-c3oc4ccccc4c3N)c2c1,–,inactive: -14%
COC1=C(NCc2ccc3c(c2)OCO3)C(=O)C(OC)=C(NCc2ccc3c(c2)OCO3)C1=O,active: 8.91 µM,–
N=c1c(C(=O)NCC2CCCO2)cc2c(=O)n3ccccc3nc2n1Cc1cccnc1 (configuration not stated),"inconclusive: 44.7 µM [inhibitor, partial curve, poor fit]",–
CN(C)Cc1ccccc1-c1cncnc1Nc1ccccc1,"inconclusive: 44.7 µM [inhibitor, partial curve, poor fit]",–
CCOC(=O)N1CCC(N(CCN(C)C)C(=S)Nc2cc(Cl)cc(Cl)c2)CC1,–,inactive: 4.12%
CCCCCc1ccc(-c2ccc(C3CCC(CCCCC)CC3)cc2)nc1 (configuration not stated),–,inactive: -5.99%
Cc1ccc(OCC(=O)N/N=C/c2ccco2)cc1,–,inactive: 6.72%
Cc1ccc(S(=O)(=O)N2CCCCC2)cc1NC(=O)COC(=O)c1ccccc1C(F)(F)F,"inconclusive: 50.1 µM [inhibitor, partial curve, poor fit]",–
COC(=O)C1CCN(Cc2cc(=O)oc3cc(C)ccc23)CC1,"inconclusive: 70.8 µM [inhibitor, partial curve, poor fit]",–
C=CCc1cc(/C=C2/NC(=O)NC2=O)cc(OCC)c1O,"inconclusive: 50.1 µM [inhibitor, partial curve, poor fit]",–
c1csc(-c2nc3c4ccccc4c4ccccc4c3[nH]2)c1,"inconclusive: 1.26 µM [inhibitor, full curve]",–
Cc1ccc(S(=O)(=O)NCCc2ccncc2)cc1,"inconclusive: 39.8 µM [inhibitor, single point]",–
Cc1ccc(NC(=O)C(C#N)=C2CCCC2)cc1,–,inactive: -29.1%
CCOCCCNc1oc(-c2ccc(S(=O)(=O)N3CCc4ccccc4C3)cc2)nc1C#N,"inconclusive: 112 µM [inhibitor, single point]",–

# 3 entries from above, with tabs:
Compound	Potency	activity change, negative = inhibition
CCOC(=O)C1CCCN(Cc2cc(Br)c(OC)cc2OC)C1 (configuration not stated)	inconclusive: 1.58 µM [inhibitor, full curve, poor fit]	–
COc1ccc(-c2cc(C(=O)N3CCN(c4ccccc4OC)CC3)c3cc(C(C)C)ccc3n2)cc1	–	inconclusive: -30.4% [inhibitor]
Cc1nc2cc(NC(=O)C(C)Oc3ccc(Cl)cc3Cl)ccc2o1 (configuration not stated)	inconclusive: 20 µM [inhibitor, partial curve, poor fit]	–

# Later entries

Compound,Potency,"activity change, negative = inhibition"
COc1ccc(CC(=O)OCCc2cc3cc(OC)c(OC)cc3c(=O)o2)cc1,"inconclusive: 39.8 µM [inhibitor, partial curve, poor fit]",–
CN1C(=O)N(C)C2=NNC=NC2(O)C1=O (configuration not stated),"inconclusive: 35.5 µM [inhibitor, partial curve, poor fit]",–
CC(OC(=O)CC1CC2CCC1C2)C(=O)Nc1ccc(C(N)=O)cc1 (configuration not stated),"inconclusive: 39.8 µM [inhibitor, partial curve, poor fit]",–
N#Cc1nc(COc2ccc(Cl)cc2)oc1N1CCCCCC1,"inactive and inconclusive: 4.47 µM [inhibitor, single point]",–
OC(CC#CCN1CCN(CC#CCC(O)(c2ccccc2)c2ccccc2)CC1)(c1ccccc1)c1ccccc1,active: 11.2 µM,–
Cc1cc(C)c(S(=O)(=O)N2CCCCC2)c(C)c1N(C)S(=O)(=O)c1ccccc1,"inconclusive: 4.47 µM [inhibitor, full curve, poor fit]",–
Cc1oc(-c2ccccc2)nc1C(=O)OCC(=O)NCc1ccc(Cl)cc1,"inconclusive: 39.8 µM [inhibitor, partial curve, poor fit]",–
O=c1cc(O)n(-c2ccccc2F)c(=S)[nH]1,"inconclusive: 17.8 µM [inhibitor, partial curve]",–
N#CCCN(C1CCCCC1)S(=O)(=O)c1cccc2nsnc12,"inconclusive: 39.8 µM [inhibitor, partial curve, poor fit]",–
CN(C)CCN(Cc1ccccc1)c1ccnc(N(C)C)c1C#N,"inconclusive: 0.355 µM [inhibitor, full curve, poor fit]",–
CNC(=O)N1CCC(Cc2noc(-c3ccncc3)n2)C1 (configuration not stated),–,inactive: 38.2%
S=c1[nH]nc(-c2ccc(Br)cc2)n1-c1ccc2c(c1)OCCO2,"inconclusive: 31.6 µM [inhibitor, partial curve, poor fit]",–
CN1Cc2cccn2CC1CNC(=O)c1ccoc1 (configuration not stated),–,inactive: 126%
CC(C)c1ccc(/C=C(\C#N)C(=O)NCCc2ccccc2)cc1,–,inactive: 2.04%
CCC1=C/C(=C/N(C)c2ccccc2)C(=O)S1,"inconclusive: 56.2 µM [inhibitor, partial curve, poor fit]",–
COc1ccc2nc(NS(=O)(=O)c3ccc(C)cc3)c(Nc3cc(Cl)ccc3OC)nc2c1,"inconclusive: 56.2 µM [inhibitor, partial curve, poor fit]",–
Cc1ccccc1NC(=O)C1=Cc2sc3c(c2CS1)CCCC3,active: 20 µM,–
CCCOC(=O)c1ccc(NC(=O)CSc2nc(=O)[nH]nc2C)cc1,–,inactive: 12.5%
CN(C)CCCN(C(=O)c1ccc(S(=O)(=O)N2CCCCCC2)cc1)c1nc2cc3c(cc2s1)OCCO3,"inconclusive: 44.7 µM [inhibitor, partial curve, poor fit]",–
Cc1cc(C)c(CNC(=O)c2cc(-c3ccccc3F)cc3c2OCCN3C(C)C)c(=O)[nH]1,"inconclusive: 44.7 µM [inhibitor, partial curve, poor fit]",–
CCOC(=O)c1cc(C(=O)NC(C)c2ccccc2)c(C)[nH]c1=O (configuration not stated),–,inactive: -12.6%
